Two sequences from paper PMC7277757, “On the Electrochemical Detection of Alpha-Fetoprotein Using Aptamers: DNA Isothermal Amplification Strategies to Improve the Performance of Weak Aptamers” can be followed below.

The exact form of at least one protein or probe is not confirmed.

The target of series [1] is T1, alpha-fetoprotein (AFP) (Homo sapiens) (UniProt P02771).
T1 sequence: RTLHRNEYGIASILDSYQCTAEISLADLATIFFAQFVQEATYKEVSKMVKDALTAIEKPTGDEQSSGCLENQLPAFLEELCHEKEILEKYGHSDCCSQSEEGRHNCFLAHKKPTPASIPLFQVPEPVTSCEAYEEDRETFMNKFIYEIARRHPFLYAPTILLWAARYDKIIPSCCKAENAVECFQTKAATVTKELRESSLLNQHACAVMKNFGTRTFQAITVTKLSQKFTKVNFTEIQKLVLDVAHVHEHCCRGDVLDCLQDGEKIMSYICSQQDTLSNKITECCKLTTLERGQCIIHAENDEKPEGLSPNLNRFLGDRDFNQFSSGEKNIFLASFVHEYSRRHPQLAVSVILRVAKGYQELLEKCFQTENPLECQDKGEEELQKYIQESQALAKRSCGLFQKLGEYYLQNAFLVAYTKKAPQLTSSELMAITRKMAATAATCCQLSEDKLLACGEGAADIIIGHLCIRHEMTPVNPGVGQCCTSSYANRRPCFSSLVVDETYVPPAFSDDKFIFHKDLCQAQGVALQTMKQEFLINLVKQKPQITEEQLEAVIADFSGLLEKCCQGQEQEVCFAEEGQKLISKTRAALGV
Description: SPR. The note with it: aptamer anchored, protein in solution; 1x PBS, 25 °C, 30 min, 1300 rpm; 60 µg AFP-modified magnetic beads in 250 µL (effective AFP about 34 nM); washes 1x PBS 0.01% Tween 20; pH not stated; native protein; single-stranded DNA.

Series [2] has as its target T1, alpha-fetoprotein (AFP) (Homo sapiens). The experiment in a line: sandwich assay with antibody reporter. The conditions noted are these: aptamer as capture element; 1x PBS, 25 °C, 30 min, 1300 rpm; 60 µg AFP-modified magnetic beads in 250 µL (effective AFP about 34 nM); washes 1x PBS 0.01% Tween 20; pH not stated; native protein; single-stranded DNA.

By Kd is commonly meant the concentration at which binding is half-saturated. A low value points to tighter binding. Consider “GGCAGGAAGACAAACAAGCTTGGCGGCGGGAAGGTGTTTAAATTCCCGGGTCTGCGTGGTCTGTGGTGCTGT [AFP-L (label of cited work not stated)]”, for which the Kd is 0.00237 µM in series [1] and 0.017 µM in series [2].

“TCAGGTGCAGTTCTCGACTCGGTCTTGATGTGGGT [AFP-S (label of cited work not stated)]” had a Kd in series [2] of 0.019 µM.
